We go through five substances from PMC9227305 (Marine Drugs, 2022).

The nature of this series: general procedure: solution-phase peptide synthesis; EEDQ. The following applies: cyclisation step.

Take “3-Hydroxy-isoindolinone-cyclo-Gly-Leu-Leu-Leu-N-Me-Leu-Leu”: the cyclisation yield (run 1) is 28%. Same read-out and setting: under “3-Hydroxy-isoindolinone-cyclo-Gly-Leu-Leu-Leu-N-Me-Leu-Leu [5]” stands 24%. Still for that read-out and setting: under “3-Hydroxy-isoindolinone-cyclo-Gly-Leu-N-Me-Leu-Leu-Leu-Leu [6]” stands 25%; under “3-Hydroxy-isoindolinone-cyclo-Gly-Leu-N-Me-Leu-Leu-Leu-Leu”, 23%.

“3-Hydroxy-isoindolinone-cyclo-(Gly-Leu-N-Me-Leu-Leu-N-Me-Leu-Leu)” registered a cyclisation yield of 51%.
